Results are given in words; binding and its absence hold for the method and conditions named. Some results given as binding are weak or reduced against the parent protein; the word gives no strength. For some of these results: Tags and fused reporters may be left off the sequences shown.
Legend:
CD6 on Jurkat cells [1] = target: T1, CD6 on Jurkat cells (human, UniProt P30203 18-668); test: flow cytometry on Jurkat cells, Fab culture supernatant
T1 construct: whole, on cells; the target is inferred from the antibodies' specificity
T1 sequence (looked up): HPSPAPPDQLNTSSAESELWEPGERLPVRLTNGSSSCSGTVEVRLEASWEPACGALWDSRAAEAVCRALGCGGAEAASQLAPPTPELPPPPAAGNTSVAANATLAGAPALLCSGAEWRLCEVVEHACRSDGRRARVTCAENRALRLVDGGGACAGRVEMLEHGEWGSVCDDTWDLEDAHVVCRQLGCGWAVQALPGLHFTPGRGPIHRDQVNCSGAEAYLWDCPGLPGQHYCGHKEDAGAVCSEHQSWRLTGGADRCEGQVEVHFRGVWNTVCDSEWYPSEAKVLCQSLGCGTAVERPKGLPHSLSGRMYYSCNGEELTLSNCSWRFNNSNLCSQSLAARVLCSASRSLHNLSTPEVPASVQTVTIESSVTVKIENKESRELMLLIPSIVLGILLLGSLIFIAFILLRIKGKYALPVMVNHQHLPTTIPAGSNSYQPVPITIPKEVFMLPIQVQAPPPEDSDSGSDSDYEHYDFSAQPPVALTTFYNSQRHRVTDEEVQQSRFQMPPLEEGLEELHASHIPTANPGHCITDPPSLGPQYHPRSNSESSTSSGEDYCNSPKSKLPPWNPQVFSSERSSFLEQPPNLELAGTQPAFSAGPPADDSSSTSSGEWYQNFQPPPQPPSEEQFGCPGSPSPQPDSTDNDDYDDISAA

rhCD6-Fc [2] = target: T2, rhCD6-Fc (human, UniProt P30203 25-398, limits assumed); test: SPR single cycle kinetics, secreted Fab captured, rhCD6-Fc injected
T2 construct: also called rhCD6-Fc chimera; antigen rhCD6-Fc; not shown: Fc part
T2 sequence (looked up): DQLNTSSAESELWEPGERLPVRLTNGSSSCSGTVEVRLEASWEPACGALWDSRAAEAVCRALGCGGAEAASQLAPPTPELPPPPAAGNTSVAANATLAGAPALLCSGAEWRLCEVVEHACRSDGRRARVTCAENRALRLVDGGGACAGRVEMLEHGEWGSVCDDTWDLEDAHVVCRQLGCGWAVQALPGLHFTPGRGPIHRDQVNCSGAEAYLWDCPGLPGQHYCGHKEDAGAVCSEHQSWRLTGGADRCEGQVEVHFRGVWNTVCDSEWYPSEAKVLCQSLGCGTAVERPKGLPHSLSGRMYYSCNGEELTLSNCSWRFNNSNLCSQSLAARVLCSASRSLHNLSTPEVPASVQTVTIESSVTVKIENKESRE

rhCD6-Fc [3] = target: T2, rhCD6-Fc; test: SPR single cycle kinetics, secreted Fab-SASA captured, rhCD6-Fc injected
CD6 on Jurkat cells [4] = target: T1, CD6 on Jurkat cells; test: flow cytometry on Jurkat cells, Fab culture supernatant; controls: TG1 supernatant and PBS
CD6 on Jurkat cells [5] = target: T1, CD6 on Jurkat cells; test: flow cytometry on Jurkat cells, Fab culture supernatant; controls: TG1 supernatant and PBS; FL2 height
rhCD6-Fc [6] = target: T2, rhCD6-Fc; test: SPR single cycle kinetics (BIAcore T200): Fab-SASA captured on immobilised BSA, rhCD6-Fc at 1, 3, 9, 27 and 81 nM, 3000 s dissociation, 1:1 fit
rhCD6-Fc [7] = target: T2, rhCD6-Fc; test: SPR off-rate ranking (BIAcore T200): Fab-SASA from culture medium captured on immobilised BSA, rhCD6-Fc injected, dissociation phase, response normalised
rhCD6-Fc [8] = target: T2, rhCD6-Fc; test: conclusion of Example 2 (SPR on rhCD6-Fc)
CD6 on Jurkat cells [9] = target: T1, CD6 on Jurkat cells; test: flow cytometry on Jurkat cells, purified IgG
rhCD6-Fc [10] = target: T2, rhCD6-Fc; test: SPR (BIAcore T200), rhCD6-Fc immobilised, IgG injected
rhCD6-Fc [11] = target: T2, rhCD6-Fc; test: SPR (BIAcore T200): rhCD6-Fc immobilised on CM5, IgG injected at 0.11-27 nM, 700 s association, 3600 s dissociation, 1:1 fit

Measured: binding

B1: Fab2 (Fab, V domains shown)
VH: QVQLQESGPGLVKPSETLSLTCTVSGFSLSRYSVHWVRQPPGKGLEWLGLIWGGGFTDYNSALKSRLTISKDNSKNQVSLKLSSVTAADTAVYYCAREGVAYWGQGTLVTVSS
VL: DVVMTQSPLSLPVTLGQPASISCKSSQSLLNSDGRTYLNWFQQRPGQSPRRLIYLVSKLDSGVPDRFSGSGSGTDFTLKISRVEAEDVGVYYCWQGTHFPFTFGPGTKVDIK
notes: Tested as Fab-SASA secreted into culture medium (pFASEBA vector); also called back-mutation 2; Fab2 clone from CDR grafting
not listed: rhCD6-Fc [8] | CD6 on Jurkat cells [9] | rhCD6-Fc [10] | rhCD6-Fc [11]
binds: all other assays above

B2: Humanized IgG6 (from Fab6) (antibody, V domains shown)
VH: QVQLQESGPGLVKPSETLSLTCTVSGFSLSRYSVHWIRQPPGKGLEWIGLIWGGGFTDYNSALKSRVTISKDNSKNQVSLKLSSVTAADTAVYYCAREGVAYWGQGTLVTVSS
VL: DVVMTQSPLSLPVTLGQPASISCKSSQSLLNSDGRTYLNWFQQRPGQSPRRLIYLVSKLDSGVPDRFSGSGSGTDFTLKISRVEAEDVGVYYCWQGTHFPFTFGPGTKVDIKR
notes: Human IgG1 / kappa
binds: rhCD6-Fc [8] | CD6 on Jurkat cells [9] | rhCD6-Fc [10] | rhCD6-Fc [11]

B3: Fab4 (Fab, V domains shown)
VH: QVQLQESGPGLVKPSETLSLTCTVSGFSISRYSVHWIRQPPGKGLEWIGLIWGGGFTDYNSALKSRVTISKDNSKNQVSLKLSSVTAADTAVYYCAREGVAYWGQGTLVTVSS
VL: DVVMTQSPLSLPVTLGQPASISCKSSQSLLNSDGRTYLNWFQQRPGQSPRRLIYLVSKLDSGVPDRFSGSGSGTDFTLKISRVEAEDVGVYYCWQGTHFPFTFGPGTKVDIK
notes: Tested as Fab-SASA secreted into culture medium; also called back-mutation 4
binds: CD6 on Jurkat cells [1] | CD6 on Jurkat cells [4]

B4: Humanized IgG4 (from Fab4) (antibody, V domains shown)
VH: QVQLQESGPGLVKPSETLSLTCTVSGFSISRYSVHWIRQPPGKGLEWIGLIWGGGFTDYNSALKSRVTISKDNSKNQVSLKLSSVTAADTAVYYCAREGVAYWGQGTLVTVSS
VL: DVVMTQSPLSLPVTLGQPASISCKSSQSLLNSDGRTYLNWFQQRPGQSPRRLIYLVSKLDSGVPDRFSGSGSGTDFTLKISRVEAEDVGVYYCWQGTHFPFTFGPGTKVDIKR
notes: VH4-hIgG1CH and VL-hIgKCL (human IgG1 / kappa; 'IgG4' is the clone number, not the isotype)
binds: rhCD6-Fc [8] | CD6 on Jurkat cells [9] | rhCD6-Fc [10] | rhCD6-Fc [11]

B5: Fab7 (Fab, V domains shown)
VH: QVQLQESGPGLVKPSETLSLTCTVSGGSISRYSVHWVRQPPGKGLEWLGLIWGGGFTDYNSALKSRLTISVDTSKNQFSLKLSSVTAADTAVYYCAREGVAYWGQGTLVTVSS
VL: DVVMTQSPLSLPVTLGQPASISCKSSQSLLNSDGRTYLNWFQQRPGQSPRRLIYLVSKLDSGVPDRFSGSGSGTDFTLKISRVEAEDVGVYYCWQGTHFPFTFGPGTKVDIK
notes: Tested as Fab-SASA secreted into culture medium; also called back-mutation 7
binds: CD6 on Jurkat cells [1] | CD6 on Jurkat cells [4]

B6: Fab5 (Fab, V domains shown)
VH: QVQLQESGPGLVKPSETLSLTCTVSGGSLSRYSVHWVRQPPGKGLEWLGLIWGGGFTDYNSALKSRLTISVDTSKNQFSLKLSSVTAADTAVYYCAREGVAYWGQGTLVTVSS
VL: DVVMTQSPLSLPVTLGQPASISCKSSQSLLNSDGRTYLNWFQQRPGQSPRRLIYLVSKLDSGVPDRFSGSGSGTDFTLKISRVEAEDVGVYYCWQGTHFPFTFGPGTKVDIK
notes: Tested as Fab-SASA secreted into culture medium; also called Fab5 R; back-mutation 5
binds: CD6 on Jurkat cells [1] | CD6 on Jurkat cells [4]

B7: Humanized IgG2 (from Fab2) (antibody, V domains shown)
VH: QVQLQESGPGLVKPSETLSLTCTVSGFSLSRYSVHWVRQPPGKGLEWLGLIWGGGFTDYNSALKSRLTISKDNSKNQVSLKLSSVTAADTAVYYCAREGVAYWGQGTLVTVSS
VL: DVVMTQSPLSLPVTLGQPASISCKSSQSLLNSDGRTYLNWFQQRPGQSPRRLIYLVSKLDSGVPDRFSGSGSGTDFTLKISRVEAEDVGVYYCWQGTHFPFTFGPGTKVDIKR
notes: VH2-hIgG1CH and VL-hIgKCL (human IgG1 / kappa)
binds: rhCD6-Fc [8] | CD6 on Jurkat cells [9] | rhCD6-Fc [10] | rhCD6-Fc [11]
